Data as given in PubChem BioAssay AID493246 (Drosophila RNAi Screening Center, 2011)
In all, the deposit lists about 21,000 reagents; this is an unselected part of those with a known target gene and a result. Over the whole deposit, 429 (2%) were called active. 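Values are raw and not normalised between plates; calls rest on per-plate z-scores that were not deposited.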 Reagent sequences are not shown. The record does not give: the amount of reagent, the time to read-out.

- Purpose: 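Identify essential fly genes by loss of cell viability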 (primary screen)
- Cells: Drosophila Kc and S2R+ cells
- Knock-down reagent: long dsRNA against Drosophila genes
- Measured: 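Raw, unnormalised count of remaining cells in each well; per-plate z-scores of cell number underlie the calls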
- Reading the numbers: Kc cell number and S2R+ cell number: higher = more cells remaining
- Call rule: 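Counted as a hit if cell number falls by a z-score of at least 3 within its plate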

| target gene | PubChem SID | Kc cell number, rep 1 | Kc cell number, rep 2 | S2R+ cell number, rep 1 | S2R+ cell number, rep 2 | Outcome |
| --- | --- | --- | --- | --- | --- | --- |
| Tgi | SID104189585 | 1.28e6 | 1.38e6 | 1.27e6 | 1.39e6 | inactive |
| Tgi | SID104189586 | 1.30e6 | 1.47e6 | 1.25e6 | 1.34e6 | inactive |
| Vps60 | SID104190402 | 1.24e6 | 1.36e6 | 1.19e6 | 1.27e6 | inactive |
| CG3626 | SID104198110 | 1.47e6 | 1.41e6 | 1.04e6 | 1.01e6 | inactive |
| Tmtc2 | SID104180064 | 1.34e6 | 1.36e6 | 7.73e5 | 9.01e5 | inactive |
| CG3740 | SID104198300 | 1.49e6 | 1.47e6 | 1.04e6 | 1.13e6 | inactive |
| Or83a | SID104192149 | 1.59e6 | 1.73e6 | 1.38e6 | 1.51e6 | inactive |
| CG4375 | SID104180445 | 1.72e6 | 1.74e6 | 1.05e6 | 1.21e6 | inactive |
| Drice | SID104196507 | 5.31e5 | – | 8.57e5 | – | inactive |
| p38b | SID104183378 | 1.51e6 | 1.62e6 | 1.24e6 | 1.31e6 | inactive |

Continued (3 carried over from the part before).
| target gene | PubChem SID | Kc cell number, rep 1 | Kc cell number, rep 2 | S2R+ cell number, rep 1 | S2R+ cell number, rep 2 | Outcome |
| --- | --- | --- | --- | --- | --- | --- |
| CG4375 | SID104180445 | 1.72e6 | 1.74e6 | 1.05e6 | 1.21e6 | inactive |
| Drice | SID104196507 | 5.31e5 | – | 8.57e5 | – | inactive |
| p38b | SID104183378 | 1.51e6 | 1.62e6 | 1.24e6 | 1.31e6 | inactive |
| CG11560 | SID104189635 | 1.42e6 | 1.43e6 | 1.35e6 | 1.29e6 | inactive |
| CG8578 | SID104199906 | 5.82e5 | – | 8.79e5 | – | inactive |
| Pal2 | SID104184299 | 1.51e6 | 1.56e6 | 1.27e6 | 1.36e6 | inactive |
| CG6511 | SID104190448 | 1.36e6 | 1.39e6 | 1.12e6 | 1.21e6 | inactive |
| Sgs3 | SID104191072 | 1.60e6 | 1.49e6 | 1.41e6 | 1.52e6 | inactive |
| CG13989 | SID104182113 | 1.62e6 | 1.53e6 | 1.20e6 | 1.32e6 | inactive |
| CG11417 | SID104198373 | 5.16e5 | – | 8.75e5 | – | inactive |
| CG8389 | SID104186950 | 1.55e6 | 1.62e6 | 1.17e6 | 1.11e6 | inactive |
| CG31730 | SID104181100 | 1.43e6 | 1.52e6 | 1.00e6 | 1.10e6 | inactive |
| Uck | SID104193453 | 1.17e6 | 1.52e6 | 1.12e6 | 1.14e6 | inactive |
| Uck | SID104195820 | 1.48e6 | 1.46e6 | 8.98e5 | 1.02e6 | inactive |
| Mi-2 | SID104191014 | 1.79e6 | 1.90e6 | 1.03e6 | 1.16e6 | inactive |
| Tom7 | SID104184927 | 1.44e6 | 1.51e6 | 9.45e5 | 1.10e6 | inactive |
| Tom7 | SID104186905 | 1.44e6 | 1.48e6 | 1.27e6 | 1.36e6 | inactive |
